{
  "source": "patent US20030022847A1",
  "about": "“Method for inhibiting apoptosis under ischemic condition” (priority 2000, published 2003)",
  "test_system": "HepG2 cells",
  "assay": "Analysis of DNA (gel electrophoresis, laddering) from cells under hypoxic and hypoglycemic condition",
  "details": "10 μg/ml; 1% (v/v) oxygen, 1 g/L glucose, 2 days (test group D, FIG. 7)",
  "note": "For at least one compound, name, drawing or mass did not settle the structure. Some compounds share one wording; it may come from a single statement.",
  "data": [
    {"smiles": "CN[C@@H]1[C@@H](O)[C@@H](O[C@@H]2[C@@H](O)[C@H](O[C@H]3O[C@H]([C@@H](C)O)[C@@H](O)[C@H](O)[C@H]3N)[C@@H](N)C[C@H]2N)OC[C@]1(C)O", "note": "[geneticin]", "values": [
      {"measurement": "DNA laddering (apoptosis)", "result": "almost no laddering"}
    ]}
  ]
}
